Test results reported in patent US20020123480A1, “Methods and compositions utilizing 2'-5' oligoadenylates in the treatment of disorders of cell proliferation” (priority 2000, published 2002).

Test system: primary human cervical keratinocytes (PHK)
Experiment: Growth of control primary human cervical keratinocytes, Coulter Counter cell count
Assay type: cell-based

2′,3′-cyclophosphateadenylyl(2′,5′)adenylyl-(2′,5′)adenosine [Cmpd. I]
Ratio of IC50 at day 3 to IC50 at day 5 (Day 5): 0.7 | Ratio of IC50 at day 3 to IC50 at day 7 (Day 7): 0.4 | Ratio of IC50 at day 3 to IC50 at day 10 (Day 10): 0.4
